# Laboratory results reported in patent US20120301951A1, “PREVENTION OF CONTAMINATION OF NUTRIENT FEED RESERVOIRS & FEED LINES IN BIOREACTOR SYSTEMS” (E. I. DU PONT DE NEMOURS AND COMPANY, priority 2010, published 2012).
# Test system: Arcobacter sp. strain 97AE3-12
# Experiment: Contamination prevention of the nutrient feed reservoir during continuous growth in a bioreactor (Example 2); ion chromatography of feed reservoir and effluent
# Format: cell-based
compound,measurement,setting,value
"O=NO [Nitrite, nitrite]",Concentration in bioreactor effluent (7) after 20 days of feeding,20 days,0 ppm
same,Concentration in bioreactor effluent (7) after 26 days of feeding,26 days,3 ppm
